These are yes or no findings as the source states them, for the method shown. For some assays here: In cells and extracts the contact can be indirect. Some results given as binding are weak or reduced against the parent protein; the word gives no strength. Tags and fused reporters may be left off the sequences shown.
Key:
FLAG-tagged 14-3-3? [1] = biological target: FLAG-tagged 14-3-3? (UniProt P63103); experiment: co-immunoprecipitation from transfected HEK293 cells
FLAG-tagged 14-3-3? [2] = biological target: FLAG-tagged 14-3-3? (UniProt P63103); experiment: co-immunoprecipitation with anti-FLAG (M2) from transfected HEK293 cells
[3] = biological target: His-14-3-3? (immobilized) (UniProt P63103); experiment: competition with [35S]-ASK1 for immobilized His-14-3-3
14-3-3? dimer = 14-3-3? dimer (UniProt P63103); experiment: R18-Sepharose pull-down of 14-3-3 with Bad phosphopeptide as competitor
[4] = biological target: His-14-3-3? (immobilized) (UniProt P63103); experiment: competition: peptide preincubated with immobilized His-14-3-3 before [35S]-ASK1; PhosphorImager

By UniProt entry, the sequences of proteins in these tests, tags left out.
UniProt P63103: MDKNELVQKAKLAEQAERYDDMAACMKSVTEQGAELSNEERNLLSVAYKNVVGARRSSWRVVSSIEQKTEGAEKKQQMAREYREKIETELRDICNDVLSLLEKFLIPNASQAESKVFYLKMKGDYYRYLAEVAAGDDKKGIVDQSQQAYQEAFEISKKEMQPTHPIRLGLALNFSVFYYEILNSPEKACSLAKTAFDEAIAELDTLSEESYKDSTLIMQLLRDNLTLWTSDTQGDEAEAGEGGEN

| binding (FLAG-tagged 14-3-3? [1]) | binding (FLAG-tagged 14-3-3? [2]) | binding [3] | binding (14-3-3? dimer) | binding [4] | Binder |
| --- | --- | --- | --- | --- | --- |
| binds | binds |  |  |  | EYFP-difopein (designed binder, not shown: large carriers) SADGAPHCVPRDLSWLDLEANMCLPGAAGLDSADGAPHCVPRDLSWLDLEANMCLPGAAGLE |
|  |  | binds | binds | binds | PHCVPRDLSWLDLEANMCLP [R18 polypeptide (14-3-3 amphipathic groove binding antagonist)] |

Reference: US20040152630A1
